Some entries share one result that the patent states for a list of compounds.
Test system: Nanog locus in E14 mouse ES cells
Experiment: sfGFP insertion at the Nanog locus assayed by PCR and sequencing
Format: cell-based

## O=c1[nH]c(=O)n([C@H]2C[C@H](O)[C@@H](CO)O2)cc1C(F)(F)F [TFT, Trifluridine]
  decreased HDR efficiency: more than 10 fold

Source: US20180016601A1, “Methods for Modulating Genome Editing” (The Board of Trustees of the Leland Stanford Junior …, priority 2015, published 2018)
